{"source": "paper PMC7819943", "about": "“Rice protein-binding microarrays: a tool to detect cis-acting elements near promoter regions in rice”", "note": "The list shows a part of the results."}
{"target": "T1, OsSMF1 (Oryza sativa, UniProt Q6ZLB0 1-436)", "T1 sequence": "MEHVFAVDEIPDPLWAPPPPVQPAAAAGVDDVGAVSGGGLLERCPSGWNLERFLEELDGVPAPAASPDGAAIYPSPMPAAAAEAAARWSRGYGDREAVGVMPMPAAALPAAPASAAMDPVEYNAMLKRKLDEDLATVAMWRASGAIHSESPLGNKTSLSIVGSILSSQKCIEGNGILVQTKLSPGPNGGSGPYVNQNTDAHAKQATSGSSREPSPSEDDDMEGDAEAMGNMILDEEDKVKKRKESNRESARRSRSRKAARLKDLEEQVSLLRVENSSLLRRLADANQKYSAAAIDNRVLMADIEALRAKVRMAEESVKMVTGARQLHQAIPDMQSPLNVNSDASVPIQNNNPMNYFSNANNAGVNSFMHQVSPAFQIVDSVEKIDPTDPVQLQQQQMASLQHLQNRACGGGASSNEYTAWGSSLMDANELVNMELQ", "assay": "protein-binding microarray (RPBM); PBS, 2% BSA, 51.3 ng/ul salmon testes DNA, 50 uM zinc acetate, 200 nM TF, 25 C, 1 h; high values mean tight binding", "settings": "protein: recombinant; tags: N-terminal polyhistidine and DsRed monomer fusion (pET32a); chain copies: 2; label: CyDye5-dUTP incorporated in the synthesized complementary strand; 3' TTTTT single-stranded linker to array surface; dsDNA, one strand shown", "procedure,_shortened": "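Binding signal is reported as fluorescence intensity per feature (arbitrary units) from an Axon 4000B scanner. Incubation used 200 nM of each Ni–NTA-purified, N-terminally polyhistidine- and DsRed-fused transcription factor from E. coli BL21-CodonPlus on a double-stranded custom Agilent array for 1 h at 25 °C, with 50 µM zinc acetate in the buffer, followed by washing.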"}
{"sequence": "TGCCGGTTTGGATAGGAAAGTTGAGCAGCCTGGATTTTGTCGGAGTCACCTAGTGCAG", "binding signal": "3220 fluorescence intensity (a.u.)"}
{"sequence": "AGTGCACCGCTGTCCCCATTGAGATGGAGTCAGCACGAGACGGAGTCACCTAGTGCAG", "binding signal": "5080 fluorescence intensity (a.u.)"}
{"sequence": "CCGCGTCCGTACTCTCTAGCCTGCGGGTAAGCAACGAACTCGGAGTCACCTAGTGCAG", "binding signal": "45200 fluorescence intensity (a.u.)"}
{"sequence": "AGACCAAGTCAAATCAGCCACGTAGATGCCACATCAGCCGCGGAGTCACCTAGTGCAG", "binding signal": "35900 fluorescence intensity (a.u.)"}
{"sequence": "AATGGGAGGAGATGGAAGGATGGCAACTCCGCCCGTTACACGGAGTCACCTAGTGCAG", "binding signal": "13500 fluorescence intensity (a.u.)"}
{"sequence": "GAGGATTTAGAGCACGAATCACAAAGTCATGTGGCTGACGCGGAGTCACCTAGTGCAG", "binding signal": "4110 fluorescence intensity (a.u.)"}
{"sequence": "TTTGATGGGAATTTGTTTCAGATATGCTTACGTGCACATACGGAGTCACCTAGTGCAG", "binding signal": "7570 fluorescence intensity (a.u.)"}
{"sequence": "ACACAAGTGAGTGGGTGACGCGACGATGCTAGCCCGATGCCGGAGTCACCTAGTGCAG", "binding signal": "6260 fluorescence intensity (a.u.)"}
{"sequence": "GTACTTTCTTGACTAATCATCTATTGTGTGCACACTTTTCCGGAGTCACCTAGTGCAG", "binding signal": "3370 fluorescence intensity (a.u.)"}
{"sequence": "ATGCACAACTCGAGCTCCACATCACAGCTGCAGCAACGTACGGAGTCACCTAGTGCAG", "binding signal": "4730 fluorescence intensity (a.u.)"}
{"sequence": "TCGAACCAATAGTTTCATAGTGACTCATTAGCATATAATTCGGAGTCACCTAGTGCAG", "binding signal": "4980 fluorescence intensity (a.u.)"}
{"sequence": "CCTCTCTGATTCGTCACCGCCACCGCCGCGTCGTCCCGCGCGGAGTCACCTAGTGCAG", "binding signal": "6810 fluorescence intensity (a.u.)"}
{"sequence": "TACGCTCACGAGTAAGGAGATGTGGTCGCCATTCATATCACGGAGTCACCTAGTGCAG", "binding signal": "3310 fluorescence intensity (a.u.)"}
{"sequence": "AGCACGCGAAACAAGTCAGGCGATTGCCAGTTTGCCACCCCGGAGTCACCTAGTGCAG", "binding signal": "22700 fluorescence intensity (a.u.)"}
{"sequence": "CACTTTGCCATGTCACACTTTAGTTATGCCACATGTGTTTCGGAGTCACCTAGTGCAG", "binding signal": "17400 fluorescence intensity (a.u.)"}
{"sequence": "TTAGAAATATAAATGACACATCTCTACAAGTTGTAAGTACCGGAGTCACCTAGTGCAG", "binding signal": "3760 fluorescence intensity (a.u.)"}
{"sequence": "AGCATCTCCGATGTCCATGTCGTCGTGACGTCACCACACGCGGAGTCACCTAGTGCAG", "binding signal": "28200 fluorescence intensity (a.u.)"}
{"sequence": "GGAGTGAGGACATGACAAATCATTTTGTGCTCAAGAGACTCGGAGTCACCTAGTGCAG", "binding signal": "3200 fluorescence intensity (a.u.)"}
{"sequence": "ATTACTTACTTTGATTCAATTCCACATTATTTAAATTATCCGGAGTCACCTAGTGCAG", "binding signal": "21900 fluorescence intensity (a.u.)"}
{"sequence": "CTCGATCGAGCCCATCCACGTGCCGACTGCCCACGAGTCACGGAGTCACCTAGTGCAG", "binding signal": "3500 fluorescence intensity (a.u.)"}
{"sequence": "AGCTCAAGCTCGGACTCTGCCCGCCGCTTCGCCATGACATCGGAGTCACCTAGTGCAG", "binding signal": "15500 fluorescence intensity (a.u.)"}
{"sequence": "AGTACTGATCATGACATTACTTACCAATAATCAACTGTATCGGAGTCACCTAGTGCAG", "binding signal": "3430 fluorescence intensity (a.u.)"}
{"sequence": "AACAGCGACAGTGCTCAACTGCCAGTGCCAGACCAGGACACGGAGTCACCTAGTGCAG", "binding signal": "17700 fluorescence intensity (a.u.)"}
{"sequence": "TTAGCACCACGCCTCGATGACACATTGGCACCGATGGGCACGGAGTCACCTAGTGCAG", "binding signal": "4380 fluorescence intensity (a.u.)"}
{"sequence": "TATTTTGTAGGAGCACTGCTACACGTACTAAATTTCTTACCGGAGTCACCTAGTGCAG", "binding signal": "3210 fluorescence intensity (a.u.)"}
{"sequence": "CACCATCTCTATATGCAAGATTGGACGCGTGGCATCTCCTCGGAGTCACCTAGTGCAG", "binding signal": "9460 fluorescence intensity (a.u.)"}
{"sequence": "CGCCCACCCACCTCCGCACCCACGTGGCCACGCCCTCCTACGGAGTCACCTAGTGCAG", "binding signal": "13600 fluorescence intensity (a.u.)"}
{"sequence": "CCCTTAAACCTCCGTGTCTTCCTCGTGTTAACTCCTCCACCGGAGTCACCTAGTGCAG", "binding signal": "3750 fluorescence intensity (a.u.)"}
{"sequence": "AATTTGTCCCAATTATTAAGTCGCAGATCTCCGCGAGGAACGGAGTCACCTAGTGCAG", "binding signal": "3700 fluorescence intensity (a.u.)"}
{"sequence": "ATATTTAAGGCGTTATATCACAACTACAGATTTAATACCACGGAGTCACCTAGTGCAG", "binding signal": "3420 fluorescence intensity (a.u.)"}
{"sequence": "GCTAAGCACACACACACACTGCATCAGTACCTTGGTTTGGCGGAGTCACCTAGTGCAG", "binding signal": "3200 fluorescence intensity (a.u.)"}
{"sequence": "CGAGACCGACTGATGCTACAACTTCTGTCCTTGCTCCGGCCGGAGTCACCTAGTGCAG", "binding signal": "3180 fluorescence intensity (a.u.)"}
{"sequence": "CCACCGCCAGTCCGCCACCTCCACCTCCACCTCCACCCGACGGAGTCACCTAGTGCAG", "binding signal": "3450 fluorescence intensity (a.u.)"}
{"sequence": "AAATTACTCTATGATGATCTGTCTTCTGTTGCAGTTATCACGGAGTCACCTAGTGCAG", "binding signal": "3180 fluorescence intensity (a.u.)"}
{"sequence": "ACCGGCCGTGCCCACCAACACGCATGCAGATTGCAGACGACGGAGTCACCTAGTGCAG", "binding signal": "17200 fluorescence intensity (a.u.)"}
{"sequence": "CAGGTGTGATTGTCATGCCCCAGAGGATGTGCCTGAGTCACGGAGTCACCTAGTGCAG", "binding signal": "5890 fluorescence intensity (a.u.)"}
{"sequence": "GTCGGTCCTGACCCACACGTTCTCCCGCCCAATTTCCTCGCGGAGTCACCTAGTGCAG", "binding signal": "3190 fluorescence intensity (a.u.)"}
{"sequence": "GCTGCCACTTCACAAGCAACTTAACTCGACAGCCAACAATCGGAGTCACCTAGTGCAG", "binding signal": "23500 fluorescence intensity (a.u.)"}
{"sequence": "CAAATAAAACAAACCAACAATTGTTGATTTGTACCCAGTGCGGAGTCACCTAGTGCAG", "binding signal": "3320 fluorescence intensity (a.u.)"}
{"sequence": "TGAACTGCATGGCCTCCCCGAGCTCCGCCACTTCACGTGCCGGAGTCACCTAGTGCAG", "binding signal": "3880 fluorescence intensity (a.u.)"}
{"sequence": "CGGGTTGGGAATTGGAATTTGCATCTATCTGCCATAGAAGCGGAGTCACCTAGTGCAG", "binding signal": "3210 fluorescence intensity (a.u.)"}
{"sequence": "GTGAGATAGATCAATATGTGTGATGTGTTGCTTTACAATCCGGAGTCACCTAGTGCAG", "binding signal": "4460 fluorescence intensity (a.u.)"}
